Out of some 2,400 compounds screened, about 20 (0.8%) were called active.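 Rule for the calls: active = AC50 no more than ten times the highest tested concentration, or full inhibition at every dose giving a flat fit (cut at about 30 µM in these data); inconclusive = flat fit with activity between 30% and 70%, or poor-quality invalid fit; inactive = AC50 more than ten times the top tested dose.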 This is one part of the list.
Experiment: inhibitors of ADP-Glo detection reagents, dose response, artefact control for GSK-3a inhibitor project, biochemical, luminescence, cell-free, homogeneous (AID 463205);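 note: kinase-free counter-screen against the ADP-Glo detection reagents only; potency is for inhibitors that reduce the luminescence signal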
Conditions: 5 uM ADP

AC50, inactive:
CC(=O)C(Sc1ccc2nnc(-c3ccncc3)n2n1)C(C)=O > 30 µM
N#Cc1cnn2c3c(cnc12)C(=O)N1CCc2ccccc2C1C3 (configuration not stated) > 30 µM
CCCOC(=O)c1[nH]c2c(c1C)C(=O)CC(c1cc(OC)c(OC)c(OC)c1)C2 (configuration not stated) > 30 µM
COc1ccc(-c2cc(=O)c3ccccc3s2)cc1 > 30 µM
O=c1c2ccccc2[nH]c2ccccc12 > 30 µM
CCOC(=O)N1CC=C2C(C#N)=C(N)C(C#N)(C#N)[C@H](c3cccs3)C2C1 (some centres not stated) > 30 µM
Cc1ccccc1C(=O)O/N=C(\N)c1cccc([N+](=O)[O-])c1 > 30 µM
CCOc1ccc(Cn2nnc(C(=O)Nc3cc(C)cc(C)c3)c2N)cc1 > 30 µM
O=C(CSc1ccc2nnc(-c3ccc(Cl)cc3)n2n1)N1CCCC1 > 30 µM
Cc1ccc(C(=O)N/C(=C\c2ccc(-c3ccc(Cl)cc3)o2)C(=O)NCCCN(C)C)cc1 > 30 µM
CC1CCN(CCCNc2cc(NCCO)c([N+](=O)[O-])c3nonc23)CC1 > 30 µM
Cc1c(C(=O)N2CCOCC2)oc2ccc(S(=O)(=O)N3CCCCCC3)cc12 > 30 µM
O=[N+]([O-])c1cc(S(=O)(=O)N2CCCCC2)ccc1NCCCN1CCOCC1 > 30 µM
COC(=O)C(C)Sc1ccc2nnc(-c3cccc(F)c3)n2n1 (configuration not stated) > 30 µM
COc1cc(/C=C2/S/C(=N/S(=O)(=O)Cc3ccccc3)NC2=O)c([N+](=O)[O-])cc1OC > 30 µM
Cc1nc(SCC(=O)N(CC(C)C)C2CCS(=O)(=O)C2)c2ccccc2n1 (configuration not stated) > 30 µM
CC(=O)OCC1OC(n2ccc(=O)[nH]c2=O)C(O)C1O (configuration not stated) > 30 µM
CCOC(=O)c1nnn(-c2nonc2N)c1-c1ccc(F)cc1 > 30 µM
O=C(NCCCN1CCN(Cc2ccccc2Cl)CC1)Nc1ccccc1 > 30 µM
CCc1cc2c(N3CCN(c4nnc(CC)s4)CC3)ncnc2s1 > 30 µM
CCNc1ccc2noc3c2c1C(=O)c1ccccc1-3 > 30 µM
Cc1ccc(N(CC(O)CN2CCCCC2)S(=O)(=O)c2ccc(C)cc2)cc1 (configuration not stated) > 30 µM
CCCc1cc(=O)[nH]c(SCC(=O)Nc2sc3c(c2C(N)=O)CCCC3)n1 > 30 µM
COc1c(C)cc(Br)cc1C(=O)Nc1cccc(NC(=O)c2ccco2)c1 > 30 µM
O=C(NC1(C(F)(F)F)NC(=O)N(Cc2cccnc2)C1=O)c1ccncc1 (configuration not stated) > 30 µM
Cc1ccnc(NC(=O)CN2C(=O)c3ccccc3C2=O)c1 > 30 µM
CC(=O)Nc1ccc(CC#N)cc1 > 30 µM
CC(C)NC(=O)Nc1n[nH]c(Nc2ccc(Cl)cc2)n1 > 30 µM
Cc1cc2nc(-c3cccnc3SCC(=O)NC3CC3)[nH]c2cc1C > 30 µM
O=c1[nH]ncn1-c1ccccc1 > 30 µM
Oc1ccc2oc3c(c2c1C=NCc1ccncc1)CCCC3 > 30 µM
COc1ccc2[nH]c(-c3ccc(C)cc3)cc(=O)c2c1 > 30 µM
O=C(c1ccc(Cn2cnnn2)cc1)N1CCCC(Nc2ccc(F)cc2)C1 (configuration not stated) > 30 µM
CCCCC(=O)Nc1nn(CCC)c2nc3ccccc3cc12 > 30 µM
CCOC(=O)c1c(NC(=O)CN2C(=O)NC3(CCCCC3C)C2=O)sc(C(=O)N(C)C)c1C (configuration not stated) > 30 µM
Cn1c2ccc(Cl)cc2c2nc3ccccc3nc21 > 30 µM
O=C1c2cnc3nc(SCc4cccc(Cl)c4)nn3c2CC2c3ccccc3CCN12 (configuration not stated) > 30 µM
CCOc1ccc(-c2c(C(=O)N/N=C(\C)c3ccncc3)nnn2-c2nonc2N)cc1 > 30 µM
COc1ccc(CC(=O)Oc2ccccc2C)cc1 > 30 µM
CC1CCCN(Cc2c(O)ccc3c2O/C(=C\c2ccco2)C3=O)C1 (configuration not stated) > 30 µM
Cc1ccnc(NC(=O)CCC(=O)N(CC(=O)NCc2ccccc2)Cc2ccccc2)c1 > 30 µM
C/C(CC(=O)N(C(C)C)C(C)C)=N\NC(=O)COc1ccc(Cl)cc1Cl > 30 µM
COc1cccc(-c2nc(-c3ccccc3)[nH]c(=O)c2C#N)c1 > 30 µM
COc1ccc(CNc2ccc3cn[nH]c3c2)c(OC)c1OC > 30 µM
CCC/C(=N/NC(=O)c1nnn(-c2nonc2N)c1CN1CCCCC1)c1ccccc1 > 30 µM
O=C(COC(=O)Cc1ccsc1)Nc1ccc(Cl)cn1 > 30 µM
COc1cc(NC(=O)c2nnn(Cc3ccc(SC)cc3)c2N)cc(OC)c1 > 30 µM
O=C(COc1ccccc1Cl)NC1CC1 > 30 µM
Cc1ccc(/C=N/NC(=O)c2nnn(-c3nonc3N)c2-c2cccs2)cc1 > 30 µM
COc1cc2[nH]c3c(Cl)ncnc3c2cc1OC > 30 µM
COC1OC(COC(=O)c2ccccc2)C(OC(=O)c2ccccc2)C1OC(=O)c1ccccc1 (configuration not stated) > 30 µM
CCC(Oc1ccccc1)C(=O)Nc1ncc([N+](=O)[O-])s1 (configuration not stated) > 30 µM
Cc1nc(N2CCOCC2)nc(N2CCCCC2)c1[N+](=O)[O-] > 30 µM
COc1c(/C=C2\SC(=Nc3ccccc3Cl)NC2=O)cccc1[N+](=O)[O-] > 30 µM
COc1ccc(-n2c(Cc3cccn3C)nnc2SCC(=O)Nc2ccc(F)cc2)cc1 > 30 µM
CCOC(=O)CCc1c(C)c2ccc(O)cc2oc1=O > 30 µM
NCCNc1ccc([N+](=O)[O-])c(NC2CC2)c1 > 30 µM
COc1cc(-c2nnc(SCc3c(F)cccc3Cl)o2)cc(OC)c1OC > 30 µM
c1cncc(-c2nc(NCC3COc4ccccc4O3)c3ccccc3n2)c1 (configuration not stated) > 30 µM
Cc1cccc(NC(=O)c2sc3nc4c(c(-c5cccs5)c3c2N)CN(C)CC4)c1 > 30 µM
Cc1c(Nc2ncccc2C(=O)O)cccc1C(F)(F)F > 30 µM
COC(=O)[C@H](C)NC(=O)NCc1ccccc1F > 30 µM
CCN(CC)S(=O)(=O)c1ccc2oc(C(=O)N3CCOCC3)c(C)c2c1 > 30 µM
Fc1ccc(-c2nnc3ccc(N4CCCC4)nn23)cc1 > 30 µM
Cc1cccc(C)c1OC(=O)C(c1ccccc1)c1ccccc1 > 30 µM
O=C(COc1cccc2cccnc12)N/N=C/c1ccccc1O > 30 µM
COc1ccc(/C=C2\Oc3cc(OCC(=O)N4CC(O)C[C@H]4C(=O)O)ccc3C2=O)cc1OC (some centres not stated) > 30 µM
CCCOc1ccc(-c2nnc(N)s2)cc1 > 30 µM
COc1ccc2nc(NC(=O)CSc3nc4ccccc4o3)sc2c1 > 30 µM
c1nc(NC2CCCCCC2)c2[nH]cnc2n1 > 30 µM
CC(=O)Nc1ccc(-c2csc(NCc3ccccc3)n2)cc1 > 30 µM
N#CC1=C(SCC(=O)c2ccccc2)NC2=C(C(=O)CCC2)C1c1ccco1 (configuration not stated) > 30 µM
Nc1nonc1-n1nnc(C(=O)N/N=C/c2ccco2)c1CSc1ccccc1 > 30 µM
c1ccc(N2CCN(c3cnc4ccccc4n3)CC2)cc1 > 30 µM
Nc1nc(N)nc(-c2cc([N+](=O)[O-])ccc2O)n1 > 30 µM
Cc1cccc(N(C)C(=O)C2CCCN2S(=O)(=O)c2cccc3nsnc23)c1 (configuration not stated) > 30 µM
Cc1cnn(-c2cc(N/N=C/c3ccc(F)cc3)ncn2)c1 > 30 µM
CCCC1=C(C(=O)OCC)C(c2cccnc2)n2nc(C)nc2N1 (configuration not stated) > 30 µM
Nc1nc(N)nc(-c2ccccc2O)n1 > 30 µM
C[C@H](CO)N1C[C@H](C)[C@@H](CN(C)S(=O)(=O)c2ccccc2)Oc2c(NC(=O)c3ccncc3)cccc2C1=O > 30 µM
CCOC(=O)c1cc(-c2ccc(F)cc2)n(CC(=O)NC(C)CC)c1C (configuration not stated) > 30 µM
CC(C)CC(O)C1CCN(C(=O)CCc2nnc(-c3ccc4c(c3)OCO4)o2)CC1 (configuration not stated) > 30 µM
CCOC(=O)c1nnn(-c2nonc2OC)c1-c1ccccc1 > 30 µM
COc1ccc2nc(NC(=O)CN3C(=O)NC4(CCCC4)C3=O)sc2c1 > 30 µM
Cc1ccccc1CNC(=O)c1cc(COc2ccc(F)cc2F)on1 > 30 µM
N#CC1=C2SCN(Cc3ccco3)CN2C(=O)CC1c1c(F)cccc1Cl (configuration not stated) > 30 µM
CC(C)COc1ncnc2c1sc1nc3c(cc12)COC(C)(C)C3 > 30 µM
Cc1nnc(NC(=O)c2cccc(S(=O)(=O)N3CC(c4ccccc4)CC3=O)c2)s1 (configuration not stated) > 30 µM
O=C(NCCCN1CCN(CCCNC(=O)c2ccc3c(c2)OCO3)CC1)c1ccc2c(c1)OCO2 > 30 µM
N#Cc1c(-c2ccccc2Cl)c2c([nH]c1=O)-c1ccccc1OC2 > 30 µM
Fc1cccc(/C=N/Nc2cc(N3CCOCC3)ncn2)c1 > 30 µM
CCCC(=O)NC(=S)Nc1sc2c(c1C(N)=O)CCC2 > 30 µM

Sorted by number of heavy atoms (ascending): 4 of the compounds above
AC50, inactive:
COc1ccc(CNc2ccc3cn[nH]c3c2)c(OC)c1OC > 30 µM
CCOc1ccc(Cn2nnc(C(=O)Nc3cc(C)cc(C)c3)c2N)cc1 > 30 µM
Cc1nnc(NC(=O)c2cccc(S(=O)(=O)N3CC(c4ccccc4)CC3=O)c2)s1 (configuration not stated) > 30 µM
COc1ccc(/C=C2\Oc3cc(OCC(=O)N4CC(O)C[C@H]4C(=O)O)ccc3C2=O)cc1OC (some centres not stated) > 30 µM

A stretch of the results above:
AC50, inactive:
O=C(CSc1ccc2nnc(-c3ccc(Cl)cc3)n2n1)N1CCCC1 > 30 µM
Cc1ccc(C(=O)N/C(=C\c2ccc(-c3ccc(Cl)cc3)o2)C(=O)NCCCN(C)C)cc1 > 30 µM

— PubChem BioAssay AID463205 (Broad Institute, 2010)
